# Screening data, single-dose tests

Chains of the proteins cited; added tags and fusions are not shown. Residues count along the entry.
UniProt Q4DA54, 1-478: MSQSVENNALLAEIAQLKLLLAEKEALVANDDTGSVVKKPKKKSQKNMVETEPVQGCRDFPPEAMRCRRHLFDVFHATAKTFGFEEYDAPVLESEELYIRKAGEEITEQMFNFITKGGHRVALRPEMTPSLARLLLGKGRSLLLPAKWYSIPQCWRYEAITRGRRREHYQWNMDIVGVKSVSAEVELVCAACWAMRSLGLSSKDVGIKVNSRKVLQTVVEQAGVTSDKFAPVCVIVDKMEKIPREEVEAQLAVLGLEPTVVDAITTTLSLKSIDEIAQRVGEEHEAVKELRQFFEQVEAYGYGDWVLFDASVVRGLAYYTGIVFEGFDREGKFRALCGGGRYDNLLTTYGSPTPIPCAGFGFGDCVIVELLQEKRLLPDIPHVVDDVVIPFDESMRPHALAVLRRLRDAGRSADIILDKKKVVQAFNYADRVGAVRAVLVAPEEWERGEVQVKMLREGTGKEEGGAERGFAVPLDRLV
UniProt P9WNZ1, whole entry: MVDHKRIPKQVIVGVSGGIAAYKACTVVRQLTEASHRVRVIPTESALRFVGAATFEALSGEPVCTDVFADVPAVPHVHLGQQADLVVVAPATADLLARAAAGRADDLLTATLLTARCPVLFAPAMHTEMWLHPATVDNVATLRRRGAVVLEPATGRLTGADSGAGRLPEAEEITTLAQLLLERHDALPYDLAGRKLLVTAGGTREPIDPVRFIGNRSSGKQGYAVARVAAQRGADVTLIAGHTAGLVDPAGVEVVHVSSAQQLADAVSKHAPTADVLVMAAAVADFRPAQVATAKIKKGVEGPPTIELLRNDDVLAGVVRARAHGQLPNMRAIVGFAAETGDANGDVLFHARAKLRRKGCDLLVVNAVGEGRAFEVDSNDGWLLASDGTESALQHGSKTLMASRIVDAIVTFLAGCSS

Source: ChEMBL document CHEMBL3988442, “University of Dundee, Small-Polar-MMV Screening Library” (2021).

TcHisRS: 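Enzyme assay of histidyl-tRNA synthetase; the read-out is not stated. Target: Histidine-tRNA ligase, Trypanosoma cruzi CL Brener (UniProt Q4DA54). Compounds at 30 µM. Higher reads as stronger inhibition (inferred: compounds with an IC50 in retests scored well above the rest). About 69,000 compounds were tested under these conditions; 0.045% (about 31) showed 50% or more at least once.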
CoaBC: 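Enzyme assay of CoaBC with a phosphate dye (Biomol Green) read at 650 nm. Target: Coenzyme A biosynthesis protein CoaBC, Mycobacterium tuberculosis (UniProt P9WNZ1). Compounds at 30 µM. Higher reads as stronger inhibition, judged from the few compounds that gave an IC50. Most strong results did not repeat in a second test. About 67,000 compounds were tested under these conditions; 0.06% (about 40) showed 50% or more at least once.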

Values are the deposited “Percent Effect”, in %. How 0% and 100% were set is not recorded. Most values in the screen are low, and negative values occur. The compounds are a random part of those screened.

structure | TcHisRS | CoaBC
Cc1noc([C@@H]2C[C@H]3CN(Cc4scnc4C)C[C@H]3O2)n1 | 7.609 | 3.738
Cc1ccoc1C(=O)N1CCC(n2cc(-c3ccsc3)nn2)CC1 | 6.897 | 0.369
Cn1nc2c(cc1=O)CN(Cc1coc(-c3ccc(F)cc3)n1)CC2 | 6.105 | -4.54
Cc1nc(CN(C)c2nc3c(cnn3C(C)(C)C)c(=O)[nH]2)cs1 | 5.882 | -5.242
COc1nc2cc(C)ccc2cc1CN(C)Cc1n[nH]c2c1CCCC2 | 0.7576 | -1.577
CC(C)NC(=O)[C@H]1CN(Cc2ccccc2)C[C@@H]1C(=O)c1ccccc1 | 6.215 | -11.86
CCN(Cc1nc2c(cnn2C)c(=O)[nH]1)c1ccccc1C | 5.051 | 4.214
CNC(=O)c1cccc(CN2CCC(N(C)Cc3nnc(C)o3)C2)c1 (stereo unspecified) | 3.448 | 1.587
CCn1cc(NC(=O)C2CCN(Cc3noc(C(C)C)n3)CC2)cn1 | 2.632 | 4.7
COc1ccc(CN2C[C@H]3C[C@H](CN(C)C)O[C@H]3C2)cc1 | 0.9709 | 3.99
CC(C)c1nccn1C1CCCN(C(=O)CN(C)C2CC2)C1 (stereo unspecified) | 5.78 | -1.956
COCC(=O)N[C@H](C(=O)NC(C)c1cccc(C)c1C)C(C)C (stereo partly specified) | 5.435 | -5.444
Cc1noc(C)c1CCCNC(=O)Nc1ccc2c(c1)COC2 | -0.6061 | 1.46
O=C(NCC1CC1)c1cc2c(s1)CCN2C(=O)c1cccnc1 | 11.43 | -1.85
CCS(=O)(=O)N1CCC2(CC1)CC1(CCN(CCOC)CC1)C(=O)N2C | 0.9804 | 3.415
O=C(N1CCC(O)(C(F)(F)F)C1)C1(c2ccc(Cl)cc2)CC1 (stereo unspecified) | -1.724 | 4.912
O=C(CC1CC1)N1CCC2(CCCN(CCOc3ccccc3)C2)C1 (stereo unspecified) | 1.442 | 4.941
Cc1ccccc1N1CCCN(C(=O)CCc2nncn2C)CC1 | 5.357 | 3.145
CCOC(=O)N1CCN(C(=O)c2snnc2-c2ccccc2)CC1 | 2.062 | 11.08
Cc1cccc(CN2CCC3(CCCN(Cc4cnn(C)c4)C3)C2=O)n1 (stereo unspecified) | 5.714 | 19.85
CC(NC(=O)NCc1cccs1)c1ccc2c(c1)CCC(=O)N2 (stereo unspecified) | 2.286 | 1.673
COCCN1C[C@H]2CN(Cc3cccc(OC(F)(F)F)c3)CCN2C1=O | 0.4975 | 19.06
Cc1nn(C)c(Cl)c1CNCCOc1ccc2c(c1)OCO2 | -1.961 | 3.415
CN1CCC(CCNC(=O)c2ccc(N(C)S(C)(=O)=O)cc2Cl)CC1 | 3.347 | -8.636
CCc1nnc2sc(-c3cc(C(C)C)n[nH]3)nn12 | 9 | -3.39
Cc1cc(OCC(=O)N2CCCC2c2noc(C)n2)no1 (stereo unspecified) | 5.65 | 5.222
Cc1nc2c(Nc3cccc(C#N)c3)nc(N)nc2n1C | 2.632 | 3.1
Cc1cc(-n2cccn2)ccc1CN1CCOCC(CN(C)C)C1 (stereo unspecified) | 15.48 | 6.757
Cn1c(=O)c2c(n3ncnc13)NC(=O)CC2c1cccc(F)c1 (stereo unspecified) | 2.959 | -2.368
CCC[C@@H]1CN(C(=O)Cc2sc(C)nc2C)C[C@H]1C(=O)O | 1.087 | 11.68
Cc1nc(C2NC3(CCCC3)C(=O)N2CC2CC2)cs1 (stereo unspecified) | 0.8772 | 5.855
Cc1cnc(C(=O)N2CCCC(Cn3cc(C4CC4)nn3)C2)cn1 (stereo unspecified) | -6.494 | 0.9756
CN(CC(=O)Nc1cc(C(F)(F)F)c[nH]c1=O)Cc1ccccc1 | 7.937 | -3.926
CNc1nc2c(s1)C(c1ccc(Cl)cc1Cl)CC(=O)N2 (stereo unspecified) | 37.27 | -1.646
COc1ccc(S(=O)(=O)NC(=O)c2c(C)noc2C(C)C)cc1C | 3.333 | 6.526
Cc1cccnc1CN(C)C(C(=O)O)c1ccc(C(C)(C)C#N)cc1 (stereo unspecified) | 5.641 | 2.236
CCC(Nc1nccc(C2CCCC2)n1)c1ccncc1 (stereo unspecified) | 5.435 | 1.402
Cn1cc(N2CC3(CCN(Cc4nccn4C)C3)CC2=O)cn1 (stereo unspecified) | 7.143 | 0.1236
CN1CCN(C(=O)c2cc3occc3n2Cc2ccccc2F)CC1 | 4.124 | -8.491
CCN(CC)CCn1cc(NC(=O)CNc2ccccc2OC)cn1 | 7.843 | -4.785
Cc1cncc(C(=O)N2CCC3(CCCN(c4nncs4)C3)C2)c1 (stereo unspecified) | 11.34 | -0.2463
COc1ccc2c(ccn2CC(=O)Nc2n[nH]c(CC(C)C)n2)c1 | 18.81 | 5.954
O=C1CC2(CCN(c3nccc(-c4cc(C(=O)O)ccn4)n3)CC2)CN1 | 2.532 | 2.644
Cc1ccc(N2CC[C@@H]3O[C@@H](c4ccncn4)C[C@H]3C2)nn1 | 1.604 | 10.83
CSCc1cc(F)ccc1CNCc1ccncc1 | 16.83 | 4.126
Cc1cccc(C)c1OCCCN1CCN(CC2CCCO2)CC1 (stereo unspecified) | 3.333 | 4.959
CN(C)c1ccc(C(=O)N2CCCC(n3cccn3)C2)nn1 (stereo unspecified) | 6.358 | 2.999
CCN(Cc1ccoc1)C(=O)c1cc2c(c(S(N)(=O)=O)c1)CCC2 | 2.646 | 4.481
Cc1cnn(Cc2cc(F)ccc2F)c1NC(=O)C1COCCO1 (stereo unspecified) | 3.734 | -1.786
Cc1cccc(OC2CCN(C(=O)NCCn3ccnc3)CC2)c1C | 12.3 | 3.043
CC(C)C(=O)Nc1cccc(OCC(=O)NCc2ccccc2F)c1 | 2.762 | 9.223
CC(NC(=O)CN1CCN(c2ccncc2Cl)CC1)c1ccco1 (stereo unspecified) | -1.754 | -6.315
CC(C)CC(=O)Nc1ccc(Oc2ccsc2C(=O)O)cc1 | 8.333 | -8.285
c1ccc(-c2nc(CNCCn3cccn3)cs2)nc1 | 0.5848 | 4.847
CSCC(=O)N1CCN(CC(O)C(C)(C)C)CC1 (stereo unspecified) | 0 | 1.84
CN(CCCO)c1nc(-c2ccc(C(N)=O)cc2)nc2c1CCNC2 | 7.463 | 5.679
O=C(c1ccc(OCC2CC2)cc1)N1CCOCC1c1ncon1 (stereo unspecified) | 0 | -5.179
CCN1C(=O)CCC12CCN(S(=O)(=O)c1ccc(C#N)cc1)CC2 | 0 | -1.272

The first 4 entries again:

structure,TcHisRS,CoaBC
Cc1noc([C@@H]2C[C@H]3CN(Cc4scnc4C)C[C@H]3O2)n1,7.609,3.738
Cc1ccoc1C(=O)N1CCC(n2cc(-c3ccsc3)nn2)CC1,6.897,0.369
Cn1nc2c(cc1=O)CN(Cc1coc(-c3ccc(F)cc3)n1)CC2,6.105,-4.54
Cc1nc(CN(C)c2nc3c(cnn3C(C)(C)C)c(=O)[nH]2)cs1,5.882,-5.242